This is an account of results in PMC7819943, “Rice protein-binding microarrays: a tool to detect cis-acting elements near promoter regions in rice”.

This is one part of the list.

The assay deals with T1, OsSMF1 (Oryza sativa, UniProt Q6ZLB0 1-436).
T1 sequence: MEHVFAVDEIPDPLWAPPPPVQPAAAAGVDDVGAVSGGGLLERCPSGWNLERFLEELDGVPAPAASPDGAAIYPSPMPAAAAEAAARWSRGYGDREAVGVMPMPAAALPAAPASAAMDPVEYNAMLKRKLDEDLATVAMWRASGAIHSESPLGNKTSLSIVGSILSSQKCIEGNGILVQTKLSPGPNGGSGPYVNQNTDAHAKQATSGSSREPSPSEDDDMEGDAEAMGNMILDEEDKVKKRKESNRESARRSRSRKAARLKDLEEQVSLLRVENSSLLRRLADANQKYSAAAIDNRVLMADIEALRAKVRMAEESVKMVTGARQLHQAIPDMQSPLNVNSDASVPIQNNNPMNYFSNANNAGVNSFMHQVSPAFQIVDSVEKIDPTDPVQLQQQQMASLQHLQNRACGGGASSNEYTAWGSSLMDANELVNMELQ
The assay can be described thus: protein-binding microarray (RPBM); PBS, 2% BSA, 51.3 ng/ul salmon testes DNA, 50 uM zinc acetate, 200 nM TF, 25 C, 1 h; high values mean tight binding. To be noted: protein: recombinant; tags: N-terminal polyhistidine and DsRed monomer fusion (pET32a); chain copies: 2; label: CyDye5-dUTP incorporated in the synthesized complementary strand; 3' TTTTT single-stranded linker to array surface; dsDNA, one strand shown. Summed up: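 Per-feature fluorescence intensity (arbitrary units), read on an Axon 4000B scanner, is the binding signal. Transcription factors carrying an N-terminal polyhistidine tag and DsRed fusion were expressed in E. coli BL21-CodonPlus and purified on Ni–NTA. A custom Agilent array, made double-stranded by primer extension with Cy5-dUTP and blocked with 2% BSA, was incubated with 200 nM protein in PBS, 2% BSA, salmon testes DNA and 50 µM zinc acetate at 25 °C for 1 h and then washed.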
“TCCGTTTGATTTGCGTCCGCCTCGTCAGGATCTCGTCACCCGGAGTCACCTAGTGCAG”: the binding signal is 4380 fluorescence intensity (a.u.).
On to “GGAGCTCCTGTTCACTGGCTTGGACAACCAATGGCGTGGCCGGAGTCACCTAGTGCAG”, for which the binding signal was 4080 fluorescence intensity (a.u.).
The figure for “GTAGCCGTACGTGGTGCAGTGGTGCGTCGGGAACGAGCTGCGGAGTCACCTAGTGCAG” is 3330 fluorescence intensity (a.u.); for “ATGGTTTCAGTACATGCTATTGACGTATGCTTTTCTATTTCGGAGTCACCTAGTGCAG” it is 3930 fluorescence intensity (a.u.).
With “TGGTTCAGAAAGAATTGCCAAGACCGGAGCTGGAGGTGTGCGGAGTCACCTAGTGCAG”, the binding signal is 3640 fluorescence intensity (a.u.).
The figure for “GTGGTGTTACGCTACTCGTGCAGTAGTGCCTCATCATGGGCGGAGTCACCTAGTGCAG” is 3500 fluorescence intensity (a.u.); for “TTATTTAGCACTCGTTGCAACGTACGGATATTATGCTACTCGGAGTCACCTAGTGCAG” it is 3210 fluorescence intensity (a.u.); for “GCTTATTAAACCCCAAAAGAACAGCTCAGCTGGCTCCCACCGGAGTCACCTAGTGCAG” it is 3440 fluorescence intensity (a.u.).
Take “GTCTTCTTCTCCCTTTGTGCTGAGGTGGACGCGAAGCCGCCGGAGTCACCTAGTGCAG”: the binding signal is 7830 fluorescence intensity (a.u.).
The figure for “CTCATTCTCTCGTGGACGCGGCAGTGGCGCCACGACCACGCGGAGTCACCTAGTGCAG” is 3890 fluorescence intensity (a.u.).
The figure for “TGAGCACTAGAAGGATCATAGGATTTGTTGCCAGAGTTGGCGGAGTCACCTAGTGCAG” is 3170 fluorescence intensity (a.u.); for “CGACCCTGTGACCAGGCGCATGCAGGTGTCACGCGATGTCCGGAGTCACCTAGTGCAG” it is 4210 fluorescence intensity (a.u.).
With “CAACCTTATTCGTCACGCCAATTTGACAAAATGCAGTTATCGGAGTCACCTAGTGCAG”, the binding signal is 4080 fluorescence intensity (a.u.).
The figure for “TGTCTTTGGGCTTTCAGGGCGGTGTGCTGAGGCCGAGCGGCGGAGTCACCTAGTGCAG” is 9300 fluorescence intensity (a.u.); for “GTTTAATAGAACTCGAGTCAGAAGACAGTGTCTCTGGTGACGGAGTCACCTAGTGCAG” it is 3140 fluorescence intensity (a.u.); for “TGCGTTGGGAGTGAGTGGGACAGTGGTCAAGCCTCGTCATCGGAGTCACCTAGTGCAG” it is 3880 fluorescence intensity (a.u.).
The figure for “TAAGTATGTGCGTTTGCATGTATTTATACGGGTAAGCATGCGGAGTCACCTAGTGCAG” is 4140 fluorescence intensity (a.u.); for “TTGCTTTCTTCCTGGCACTGTCAGCATATGTAAATTTTGTCGGAGTCACCTAGTGCAG” it is 4710 fluorescence intensity (a.u.); for “GCTGTTCCCGTTCCTTGCCTTCGGCCACATCAGCCCGTTCCGGAGTCACCTAGTGCAG” it is 11300 fluorescence intensity (a.u.).
The figure for “CGGGTGTCCAGGAATAGCTCGAGCTTCCGCCACGCCACGCCGGAGTCACCTAGTGCAG” is 4630 fluorescence intensity (a.u.).
On to “TAAACTTCAAATATGACTGGAATGAGTAGATCAGTGCAGTCGGAGTCACCTAGTGCAG”, for which the binding signal was 4390 fluorescence intensity (a.u.).
The figure for “AGCGCGCGTCAGGGCAGGCAGGCTCCACCATTTCTCCCAGCGGAGTCACCTAGTGCAG” is 3310 fluorescence intensity (a.u.); for “GACTAATCAAACAATTTCCCTCGCTATTAGTCACTGACAGCGGAGTCACCTAGTGCAG” it is 3590 fluorescence intensity (a.u.).
The figure for “CCAAACGGCCACCTCACTCTCCCTCTCTCTATCTCTCTCTCGGAGTCACCTAGTGCAG” is 6000 fluorescence intensity (a.u.); for “TCAACTGCTGAGTCAATTAAACTGCTTGCTAGTTTCTCTACGGAGTCACCTAGTGCAG” it is 7340 fluorescence intensity (a.u.); for “TTTTATATGCAAAGAAAAGTTTTCCCTGAAACTGTAATTTCGGAGTCACCTAGTGCAG” it is 3490 fluorescence intensity (a.u.).
The figure for “ATTATGAAATGGAGGGAGTACCGATCATACGTGTCGTAGTCGGAGTCACCTAGTGCAG” is 5680 fluorescence intensity (a.u.); for “TTATTTGACATTTCAGTAATCTTTTGCAGATGAGCATATCCGGAGTCACCTAGTGCAG” it is 3320 fluorescence intensity (a.u.); for “AGGAGGGTGGAGCTGTGCCAAACAGACCCTAAGTGTTTTCCGGAGTCACCTAGTGCAG” it is 62100 fluorescence intensity (a.u.).
With “AAGTCAATGTCGACGTCGACGAGCTCCTCCGCAAGCGGTGCGGAGTCACCTAGTGCAG”, the binding signal is 23900 fluorescence intensity (a.u.).
The figure for “TTGGTTAGGAGCTGTTTTGTTTGTTGGGTTGAAATCGTCACGGAGTCACCTAGTGCAG” is 19800 fluorescence intensity (a.u.); for “TTAACTAACTGCGTCATCGCCACCGTCGTCATGGCATCTTCGGAGTCACCTAGTGCAG” it is 9730 fluorescence intensity (a.u.).
The figure for “ATTCGTTGCAGAAATCTGCTTGATGACGACTTGGTTGCATCGGAGTCACCTAGTGCAG” is 3260 fluorescence intensity (a.u.).
Turning to “CCTGTCCTGTGCTGCCGACCCCACGGTGTCACCTCGCGCCCGGAGTCACCTAGTGCAG”, the binding signal was 4550 fluorescence intensity (a.u.).
The figure for “CTCGACTCGACCGCGGCCGCGGCATTTCGAATTCCCAACCCGGAGTCACCTAGTGCAG” is 3320 fluorescence intensity (a.u.); for “CGCTGGATGAAATTTAGTAGACGTGTCACCCGGCATTTGCCGGAGTCACCTAGTGCAG” it is 6340 fluorescence intensity (a.u.).
On to “CTTACGATTGAGACATGCCAGCTACTACTCCCAATTCTTGCGGAGTCACCTAGTGCAG”, for which the binding signal was 4330 fluorescence intensity (a.u.).
Turning to “TATCCATTCGCGCTCCCGGATCAGGTGGCCACCGAGGCGCCGGAGTCACCTAGTGCAG”, the binding signal was 3190 fluorescence intensity (a.u.).
The figure for “TTATTTAAATCAAGATATATTTTAACGTCACCTTTCTCGTCGGAGTCACCTAGTGCAG” is 3870 fluorescence intensity (a.u.).
The figure for “GCATTGAGACTATTATATGAGCTGTCCTTAATAAATTAGTCGGAGTCACCTAGTGCAG” is 3980 fluorescence intensity (a.u.); for “GGTGAACAGAGATACACGTGGGTATACAAGTACGGGAAATCGGAGTCACCTAGTGCAG” it is 4900 fluorescence intensity (a.u.).
Turning to “ATTATGGCCCGTCACGGATATGTGTCATCCGTGACGGGTCCGGAGTCACCTAGTGCAG”, the binding signal is 6820 fluorescence intensity (a.u.).
The figure for “AAGTGGATTAACAACGGACCAATTTGCAGGGGAACAAACCCGGAGTCACCTAGTGCAG” is 30000 fluorescence intensity (a.u.).
Turning to “GGTTGGCATTCTCGGGTTCATTACAACCAATCGCAGCTAGCGGAGTCACCTAGTGCAG”, the binding signal is 3420 fluorescence intensity (a.u.).
With “CACATCTCCCATCTAAAACACGCATGCCCTGTCCGTTGTTCGGAGTCACCTAGTGCAG”, the binding signal is 3400 fluorescence intensity (a.u.).
The figure for “GTTGATCGGATTCAACCGTGCAAACAGAAAAGAAAGCGAACGGAGTCACCTAGTGCAG” is 23400 fluorescence intensity (a.u.).
The figure for “ACTATTCTAAATTATAAACTAGGGCTCACTTCCACTGACACGGAGTCACCTAGTGCAG” is 3200 fluorescence intensity (a.u.); for “AAATTTATAGTTTTGTGATAGGACACCTTACATCTATAGTCGGAGTCACCTAGTGCAG” it is 31100 fluorescence intensity (a.u.).
The figure for “TGTGGAAAGTGGCGATGAGAGGAGTCAGGGGTGGTTCGGCCGGAGTCACCTAGTGCAG” is 4640 fluorescence intensity (a.u.); for “AGCTCCCGCCATCCGCCTCGCCGCTCTCTTCATCTCGCTCCGGAGTCACCTAGTGCAG” it is 3560 fluorescence intensity (a.u.).
Consider “TACCTGCAGCTCCGCCCGCGACCTCGCCGACGCGCGGGCCCGGAGTCACCTAGTGCAG”, for which the binding signal was 3650 fluorescence intensity (a.u.).
Regarding “ATACCTAATCAACGTGTCATTTTGTGCCCCTATCACGGAACGGAGTCACCTAGTGCAG”, the binding signal was 5960 fluorescence intensity (a.u.).
The figure for “CTCTTCTATTGTTGTTGAAGTACCTGATTAACTGAGTAAGCGGAGTCACCTAGTGCAG” is 3180 fluorescence intensity (a.u.); for “CCAGTCACACAACACAACAATTTAGGATTGGTAGAGCCCACGGAGTCACCTAGTGCAG” it is 7110 fluorescence intensity (a.u.).
